Results deposited as PubChem BioAssay AID1224828 (NIAID, 2016).

- Aim: 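Find genes required for NF-kappaB p65 moving into the nucleus after LPS in mouse macrophages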 (primary screen)
- System: mouse RAW264.7 G9 macrophage reporter cells (GFP-p65, Tnf promoter-mCherry)
- Knock-down reagent: siRNA pool against mouse genes, 100 nM
- Time to read-out: 2 days siRNA transfection, then 40 min LPS before fixation
- Challenge: LPS (Salmonella minnesota R595) at 10 ng/ml
- Read-out: 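Microscopy ratio of nuclear to perinuclear-ring GFP-p65 signal, scaled to the plate median; gene score is the average of two replicate robust z-scores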
- Direction: p65 translocation robust z-score: higher = more nuclear NF-kappaB p65 after LPS than the plate median; nuclear/cytoplasmic p65 ratio: higher = more nuclear NF-kappaB p65
- Hit rule: 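Called active when z exceeds 3.3 or falls under -1.56 (median of Tlr4 controls), giving activity score of at least 50; no calls for control wells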
- Calls: active = hit (p65 shift raised or lowered); inactive = no clear change
Here is one part, drawn at random, of about 17,000 reagents tested. In the full data, 762 (4.5%) were called active. 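Active calls include both raised and lowered p65 entry, mostly lowered; wells with fewer than 50 cells lack a z-score.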 The raw values are shown without normalisation. A number with no mark means an inactive call. Reagents against one gene are numbered here.

p65 translocation robust z-score,"nuclear/cytoplasmic p65 ratio, rep 1","nuclear/cytoplasmic p65 ratio, rep 2",low cell count flag,gene,pool no.
0.01,1.45,1.33,enough cells to score,Mccc1 (methylcrotonoyl-Coenzyme A carboxylase 1 (alpha)),1
,1.65,1.93,fewer than 50 cells per well; well left out of scoring,Cdrt4 (CMT1A duplicated region transcript 4),1
-0.43,1.48,1.39,enough cells to score,Ifitm5 (interferon induced transmembrane protein 5),1
0.69,1.51,1.34,enough cells to score,Phxr5 (per-hexamer repeat gene 5),1
0.32,1.38,1.56,enough cells to score,Wdr86 (WD repeat domain 86),1
-0.48,1.43,1.54,enough cells to score,Iigp1 (interferon inducible GTPase 1),1
0.89,2.06,1.61,enough cells to score,Mup2 (major urinary protein 2),1
0.93,1.49,1.33,enough cells to score,Slc7a11,1
0.14,1.6,1.42,enough cells to score,Hsd3b2,1
-0.73,1.49,1.35,enough cells to score,Thoc1 (THO complex 1),1
-0.11,1.8,1.54,enough cells to score,"Myh10 (myosin, heavy polypeptide 10, non-muscle)",1
0.29,1.62,1.69,enough cells to score,Exosc3 (exosome component 3),1
0.21,1.66,1.44,enough cells to score,Ralgds (ral guanine nucleotide dissociation stimulator),1
,1.34,1.28,fewer than 50 cells per well; well left out of scoring,Or52ab4 (olfactory receptor family 52 subfamily AB member 4),1
,1.36,1.13,fewer than 50 cells per well; well left out of scoring,Rpl7 (ribosomal protein L7),1
-0.01,1.78,1.59,enough cells to score,Mtif2 (mitochondrial translational initiation factor 2),1
-1.39,1.18,1.32,enough cells to score,Zfp623 (zinc finger protein 623),1
-0.64,1.57,1.31,enough cells to score,Ganab (alpha glucosidase 2 alpha neutral subunit),1
,0,1.29,fewer than 50 cells per well; well left out of scoring,Hs3st3a1 (heparan sulfate (glucosamine) 3-O-sulfotransferase 3A1),1
1.72,1.86,1.69,enough cells to score,Entpd2 (ectonucleoside triphosphate diphosphohydrolase 2),1
-1.45,1.3,1.35,enough cells to score,Samm50 (SAMM50 sorting and assembly machinery component),1
,1.23,1.25,fewer than 50 cells per well; well left out of scoring,Slc49a3,1
1.48,1.55,1.61,enough cells to score,Mep1a (meprin 1 alpha),1
-0.12,1.52,1.49,enough cells to score,Tada3 (transcriptional adaptor 3),1
-0.39,1.47,1.54,enough cells to score,"Ddx3x (DEAD box helicase 3, X-linked)",1
2.91,1.95,1.93,enough cells to score,"Ddx3x (DEAD box helicase 3, X-linked)",2
,1.19,1.08,fewer than 50 cells per well; well left out of scoring,Hnrnpa1 (heterogeneous nuclear ribonucleoprotein A1),1
-0.92,1.37,1.39,enough cells to score,Cxcr5 (C-X-C motif chemokine receptor 5),1
0.33,1.53,1.6,enough cells to score,Tada2a (transcriptional adaptor 2A),1
,1.24,1.28,fewer than 50 cells per well; well left out of scoring,Prelid3b (PRELI domain containing 3B),1
2.24,1.79,2.05,enough cells to score,Ccdc32 (coiled-coil domain containing 32),1
0.24,1.76,1.57,enough cells to score,AY074887 (cDNA sequence AY074887),1
1.11,1.81,1.41,enough cells to score,Prdm16 (PR domain containing 16),1
,1.27,1.38,fewer than 50 cells per well; well left out of scoring,Dpp9 (dipeptidylpeptidase 9),1
-0.56,1.33,1.16,enough cells to score,Vps4a (vacuolar protein sorting 4A),1
0.66,1.55,1.58,enough cells to score,Tafa1 (TAFA chemokine like family member 1),1
1.48,1.72,1.73,enough cells to score,Ptpru (protein tyrosine phosphatase receptor type U),1
1.79,1.53,1.57,enough cells to score,Cnppd1 (cyclin Pas1/PHO80 domain containing 1),1
1.21,1.63,1.53,enough cells to score,Chd2 (chromodomain helicase DNA binding protein 2),1
-0.37,1.4,1.32,enough cells to score,"H2-DMa (histocompatibility 2, class II, locus DMa)",1
0.36,1.67,1.86,enough cells to score,Nudcd3 (NudC domain containing 3),1
0.24,1.48,1.44,enough cells to score,Pcdh9 (protocadherin 9),1
-0.03,1.35,1.6,enough cells to score,"Nxpe4 (neurexophilin and PC-esterase domain family, member 4)",1
2.31,2.12,1.85,enough cells to score,Loxl4 (lysyl oxidase-like 4),1
1.62,1.7,1.56,enough cells to score,Tspyl2 (TSPY-like 2),1
-0.96,1.22,1.35,enough cells to score,Pstpip2 (proline-serine-threonine phosphatase-interacting protein 2),1
-0.48,1.5,1.29,enough cells to score,Pstpip2 (proline-serine-threonine phosphatase-interacting protein 2),2
-0.24,1.37,1.35,enough cells to score,Mme (membrane metallo endopeptidase),1
,1.12,1.14,fewer than 50 cells per well; well left out of scoring,Smc6 (structural maintenance of chromosomes 6),1
-0.22,1.57,1.41,enough cells to score,Msmo1 (methylsterol monoxygenase 1),1
0.37,1.66,1.68,enough cells to score,Rassf7,1
0.66,1.63,2,enough cells to score,Yrdc (yrdC domain containing (E.coli)),1
-0.71,1.64,1.41,enough cells to score,Rere (arginine glutamic acid dipeptide (RE) repeats),1
1.05,1.91,1.46,enough cells to score,Cdkl4 (cyclin dependent kinase like 4),1
,1.39,1.58,fewer than 50 cells per well; well left out of scoring,Htr3a (5-hydroxytryptamine (serotonin) receptor 3A),1
-0.44,1.64,1.46,enough cells to score,"Aldob (aldolase B, fructose-bisphosphate)",1
-2 (active),1.25,1.29,enough cells to score,Slc51a,1
,1.3,2.28,fewer than 50 cells per well; well left out of scoring,Rpp25l (ribonuclease P/MRP 25 subunit-like),1
-0.03,1.37,1.43,enough cells to score,Fgfrl1 (fibroblast growth factor receptor-like 1),1
,1.67,1.22,fewer than 50 cells per well; well left out of scoring,"Prkaca (protein kinase, cAMP dependent, catalytic, alpha)",1
-0.69,1.53,1.5,enough cells to score,Aqp8 (aquaporin 8),1
0.97,1.48,1.58,enough cells to score,"Il13ra2 (interleukin 13 receptor, alpha 2)",1
0.43,1.4,1.63,enough cells to score,Ythdc1 (YTH domain containing 1),1
0.34,1.61,1.71,enough cells to score,Cklf (chemokine-like factor),1
-0.27,1.42,1.37,enough cells to score,"Zc2hc1c (zinc finger, C2HC-type containing 1C)",1
-0.33,1.49,1.77,enough cells to score,Trappc8 (trafficking protein particle complex 8),1
0.43,1.57,1.62,enough cells to score,Macroh2a3 (macroH2A.3 histone),1
-2.58 (active),1.03,1.16,enough cells to score,"Bhlhe22 (basic helix-loop-helix family, member e22)",1
1.37,1.52,1.43,enough cells to score,Ubxn2a (UBX domain protein 2A),1
0.62,1.46,1.31,enough cells to score,Vmn1r72 (vomeronasal 1 receptor 72),1
1.39,1.85,2,enough cells to score,Pnpla7 (patatin-like phospholipase domain containing 7),1
-0.75,1.36,1.26,enough cells to score,"Epm2a (epilepsy, progressive myoclonic epilepsy, type 2 gene alpha)",1
0.31,1.53,1.65,enough cells to score,"Mas1 (MAS1 proto-oncogene, G protein-coupled receptor)",1
-0.2,1.62,1.69,enough cells to score,Micu1 (mitochondrial calcium uptake 1),1
1.13,1.76,1.6,enough cells to score,Rps6ka1 (ribosomal protein S6 kinase A1),1

8 of these entries, set out differently.
Thoc1 (THO complex 1)
- p65 translocation robust z-score: -0.73
- nuclear/cytoplasmic p65 ratio, rep 1: 1.49
- nuclear/cytoplasmic p65 ratio, rep 2: 1.35
- low cell count flag: enough cells to score

Myh10 (myosin, heavy polypeptide 10, non-muscle)
- p65 translocation robust z-score: -0.11
- nuclear/cytoplasmic p65 ratio, rep 1: 1.8
- nuclear/cytoplasmic p65 ratio, rep 2: 1.54
- low cell count flag: enough cells to score

Exosc3 (exosome component 3)
- p65 translocation robust z-score: 0.29
- nuclear/cytoplasmic p65 ratio, rep 1: 1.62
- nuclear/cytoplasmic p65 ratio, rep 2: 1.69
- low cell count flag: enough cells to score

Ralgds (ral guanine nucleotide dissociation stimulator)
- p65 translocation robust z-score: 0.21
- nuclear/cytoplasmic p65 ratio, rep 1: 1.66
- nuclear/cytoplasmic p65 ratio, rep 2: 1.44
- low cell count flag: enough cells to score

Or52ab4 (olfactory receptor family 52 subfamily AB member 4)
- nuclear/cytoplasmic p65 ratio, rep 1: 1.34
- nuclear/cytoplasmic p65 ratio, rep 2: 1.28
- low cell count flag: fewer than 50 cells per well; well left out of scoring

Rpl7 (ribosomal protein L7)
- nuclear/cytoplasmic p65 ratio, rep 1: 1.36
- nuclear/cytoplasmic p65 ratio, rep 2: 1.13
- low cell count flag: fewer than 50 cells per well; well left out of scoring

Mtif2 (mitochondrial translational initiation factor 2)
- p65 translocation robust z-score: -0.01
- nuclear/cytoplasmic p65 ratio, rep 1: 1.78
- nuclear/cytoplasmic p65 ratio, rep 2: 1.59
- low cell count flag: enough cells to score

Zfp623 (zinc finger protein 623)
- p65 translocation robust z-score: -1.39
- nuclear/cytoplasmic p65 ratio, rep 1: 1.18
- nuclear/cytoplasmic p65 ratio, rep 2: 1.32
- low cell count flag: enough cells to score
